Values of other authors as cited in paper PMC9683570.
Structures can show the parent of a compound that is named as a salt.

Test system: hCaV1.2, β2, α2δ
Conditions: read-out: IC50 (phasic block); phasic or inactivated channel block, ambient temperature, 0.1 Hz

Question: For `CCC(=O)C(CC(C)N(C)C)(c1ccccc1)c1ccccc1` (racemic) [Methadone, (±)-methadone hydrochloride], which IC50 is on record?
Answer: 7.7 µM
